In paper PMC3903541:
Results are given in words; binding and its absence hold for the method and conditions named. For some of these results: In cells and extracts the contact can be indirect. Some results given as binding are weak or reduced against the parent protein; the word gives no strength. For some of these results: Tags and fused reporters may be left off the sequences shown.

What was measured:
[1] = target: T1, C2orf62, full-length yeast two-hybrid bait (pDBa) (human) (UniProt Q7Z7H3); assay: two-hybrid; full-length C2orf62 in pDBa as bait in MaV203 yeast; human fetal brain cDNA library in pEXP502-AD as prey; growth on -WHL + 25 mM 3-AT, on -WUL and beta-galactosidase, all three positive; 30°C
T1 sequence: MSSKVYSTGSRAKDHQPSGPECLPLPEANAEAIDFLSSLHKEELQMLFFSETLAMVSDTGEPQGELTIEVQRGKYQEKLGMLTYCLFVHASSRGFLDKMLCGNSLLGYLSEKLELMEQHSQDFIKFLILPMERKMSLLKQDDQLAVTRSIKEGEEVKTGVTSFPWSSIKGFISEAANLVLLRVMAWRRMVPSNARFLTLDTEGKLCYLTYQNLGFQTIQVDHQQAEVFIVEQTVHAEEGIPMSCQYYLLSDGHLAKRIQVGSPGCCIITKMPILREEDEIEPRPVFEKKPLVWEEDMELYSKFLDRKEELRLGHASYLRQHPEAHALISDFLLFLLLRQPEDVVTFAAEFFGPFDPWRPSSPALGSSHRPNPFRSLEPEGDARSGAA

[2] = target: T2, PRKRA-GST (full-length) (human) (UniProt O75569); assay: pull-down; GST fusion proteins on glutathione-agarose beads; pre-cleared lysate (1 mg protein) of V5-C2orf62-transfected HEK293T cells, 2 hrs at 4°C; anti-V5 Western blot; only the target purified
T2 sequence: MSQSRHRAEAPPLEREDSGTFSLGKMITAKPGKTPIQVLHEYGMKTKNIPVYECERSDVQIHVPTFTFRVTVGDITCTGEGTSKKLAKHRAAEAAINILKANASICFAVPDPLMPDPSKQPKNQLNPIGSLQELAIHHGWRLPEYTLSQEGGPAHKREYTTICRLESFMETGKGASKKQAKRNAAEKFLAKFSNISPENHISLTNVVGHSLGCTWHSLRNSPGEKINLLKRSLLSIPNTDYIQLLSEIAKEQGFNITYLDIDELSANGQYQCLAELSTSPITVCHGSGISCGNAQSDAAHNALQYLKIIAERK

[3] = target: T3, TTC17-GST (aa 945-1041) (human) (UniProt Q96AE7); assay: as above
T3 sequence: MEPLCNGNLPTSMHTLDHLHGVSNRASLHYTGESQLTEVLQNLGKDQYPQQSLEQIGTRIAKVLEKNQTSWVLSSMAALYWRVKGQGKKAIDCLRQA

mCherry-TTC17 (human) = target: T4, mCherry-TTC17 (human) (UniProt Q96AE7); assay: FRET or BRET; EGFP-C2orf62 and mCherry-TTC17 co-transfected in hTERT-RPE1 cells, confocal microscopy 24 h later; normalized FRET (FRETn) corrected for bleed-through
T4 sequence: T3 sequence

B1: TTC17 (Tetratricopeptide repeat protein 17), yeast two-hybrid prey clone, C2orf62-interacting region aa 945-1041 (domain or fragment, UniProt Q96AE7 945-1041)
chain: T3 sequence
[1]
  binding: binds

B2: V5-C2orf62 (protein, UniProt Q7Z7H3 1-387)
chain: T1 sequence
[2]
  binding: no binding
[3]
  binding: binds

B3: EGFP-C2orf62 (protein, UniProt Q7Z7H3 1-387)
chain: T1 sequence
mCherry-TTC17 (human)
  binding: binds
